Data taken from PubChem BioAssay AID1159506, deposited by NCATS (2015).

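Genome-wide siRNA knockdown in TC32 Ewing sarcoma cells, comparing luciferase light from an NR0B1-promoter reporter with a CMV-promoter reporter 48 hours after transfection.
Each siRNA was applied at 20 nM.
A z-score of the log NR0B1-over-CMV signal, less the median of siRNAs with the same seed; more negative means a stronger specific loss of the NR0B1 reporter.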

The strongest results of the screen are mostly left out here.
Sequences are the guide (antisense) strand, without overhang.

For UUACGCAAAAGCAGACCGG against IL13RA2 the result was seed-corrected z-score 0.271.
For AACCCUCCAACAUCUUAGG against OR4E2 the result was seed-corrected z-score 0.3461.
For UGCGGUUCUCCCUAUCACG against ADGRG3 the result was seed-corrected z-score -0.111.
For UAUGGUCUCAAUUUCAUCG against TSPAN2 the result was seed-corrected z-score -0.6075.
For UUUUGAUCUCAAUUUUCCC against OS9 the result was seed-corrected z-score -0.4298.
For AUCCAUGUAGUAGAAGUCG against CHST8 the result was seed-corrected z-score -0.01541.
For UCCCUAAUAGCUGCUAUCC against MBTPS2 the result was seed-corrected z-score -0.4715.
For UCUUCGACUAAAAACCUUG against ZNF816 the result was seed-corrected z-score 0.03332.
For UUCUUGAGCAAUCUGCCUG against KSR2 the result was seed-corrected z-score 0.3692.
For UCAGUGAUUACGUCGUCCG against HCLS1 the result was seed-corrected z-score 0.5778.
For AAGGUAUCAUAUUCUAUCC against FH the result was seed-corrected z-score 0.8507.
For UAGAAUGUAACAUGUCAGC against ERMN the result was seed-corrected z-score 0.007814.
For UCUAGUAAGAUGGAAGACU against EEF1B2P6 the result was seed-corrected z-score 0.03253.
For UUAUAGAGCAGGUAAACGG against OTUB2 the result was seed-corrected z-score -0.00602.
For UUUUCGGUAAAUAAAGUUC against POLR1B the result was seed-corrected z-score -0.3914.
For UGUUAUACAAGCUUGGGCU against LDLRAD1 the result was seed-corrected z-score 0.2656.
For UGACCUGUAAAGUACAUCC against LRRC8C the result was seed-corrected z-score -0.5462.
For UUGGAUCCAAGUCCAGUUG against FAM90A27P the result was seed-corrected z-score 0.2602.
For UUUCUUUCAUGUAAUGCUG against FEZF1 the result was seed-corrected z-score 0.4152.
For UUAGAAUCUGCUGCAGUUG against MNAT1 the result was seed-corrected z-score 0.004564.
For UUCUGGUAGACGGAGACCC against FLJ20021 the result was seed-corrected z-score -0.2313.
For UUUAGAUUGAGAUGCUGCC against ABHD16A the result was seed-corrected z-score 0.1412.
For UAAGUACGAACAGGGACUC against CDK2 the result was seed-corrected z-score -1.58.
For AUAUGUCUCAGCAUAGCCU against PARG the result was seed-corrected z-score -0.2006.
For UGUAGUUCAAGUCCGUUCG against DNAH5 the result was seed-corrected z-score 0.2275.
For UGAUUAAUGAGACUCGACC against ZNF84 the result was seed-corrected z-score 0.3875.
For UUCAUGUAAAUUAAUGACC against STK17A the result was seed-corrected z-score -0.04219.
For UAUCGGAACACCACACUCA against NMD3 the result was seed-corrected z-score 0.003869.
For UCAAGUACUGUUUAAACCG against SHC4 the result was seed-corrected z-score -1.505.
For AAAGUGAUCUUCGACUGCC against C12orf49 the result was seed-corrected z-score 1.388.
For UUACGUACAUCAAUAUGAG against ANKRD17 the result was seed-corrected z-score -1.12.
For AUGUUGAACAUUCAAGGUC against ZNF470 the result was seed-corrected z-score 2.983.
For UUGUCACUAAAGUCAGCCC against FAM83A the result was seed-corrected z-score -1.263.
For UAUAAUUAGCGGACAGUGG against CIPC the result was seed-corrected z-score 0.2799.
For UUCAUCGUCAUCUUGGUCU against TRIM52 the result was seed-corrected z-score -0.4677.
For UACUUGAUGACCGCGAUGU against MVD the result was seed-corrected z-score -0.4215.
For UAAGGGAGCUGAAUCAUUU against SPRR1B the result was seed-corrected z-score -0.4342.